From PubChem BioAssay AID1487 (National Center for Advancing Translational Sciences (NCATS), 2009)
Values joined by “and” are separate entries in the source; they are usually repeats but may differ in a detail not shown here. Equal entries are not always repeated. The list shows a part of the results. Shown are side measurements of this screen, not its main read-out; they come without a call. The list favours compounds with an active or inconclusive main result. Words in brackets tell the shape of the fitted curve; partial curves, single points and poor fits give uncertain potencies.

Experiment: qHTS Assay for Modulators of Lamin A Splicing
Settings: HeLa LMNA splicing GFP/RFP minigene ratio, 48 h
How it was run: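 S3 HeLa cells stably expressing lamin A-EGFP splicing minigene plus DsRed2, 600 cells/well, 48 h compound exposure at 37C. Laser-scanning cytometry; analysed as GFP (500-530 nm)/RFP (575-640 nm) total intensity ratio; 0.5% DMSO vehicle.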

[1] = measured here: GFP splicing reporter channel
[2] = measured here: RFP viability control channel

| SMILES | AC50 [1] | AC50 [2] |
| --- | --- | --- |
| O=C1CCc2ccc(OCCCCN3CCN(c4cccc(Cl)c4Cl)CC3)cc2N1 | 1.78 µM [falling, partial curve, poor fit] | 8.91 µM [rising, partial curve, poor fit] |
| CC(C)(C)c1ccc(C(=O)NNc2ncnc3c2cnn3-c2ccccc2)cc1 | 25.1 µM [falling, partial curve] | 28.2 µM [falling, partial curve] |
| CCCCn1c(SCC(=O)c2ccccc2)nc2ccsc2c1=O | 14.1 µM [rising, single point] | 31.6 µM [rising, single point] |
| O=C(Nc1nnc(CSCc2ccc(Cl)cc2)s1)c1cccc([N+](=O)[O-])c1 |  | 17.8 µM [rising, partial curve, poor fit] |
| CC(C)Oc1ccc(CN=C(N)N=C(N)N)cc1Cl |  | 11.2 µM [rising, partial curve, poor fit] |
| Cc1cccc(NC(=S)N(CCCN2CCOCC2)Cc2cn(C)c3ccccc23)c1 |  | 5.62 µM [rising, full curve, poor fit] |
| Cc1ccc(-n2c(C)cc(/C=N\NC(=O)CC(=O)NC(C)C)c2C)cc1 | 17.8 µM [rising, single point] |  |
| O=C(C1CCC(Cn2c(=S)[nH]c3ccccc3c2=O)CC1)N1CCOCC1 (stereo unspecified) | 31.6 µM [rising, single point] | 31.6 µM [rising, single point] |
| CNCc1ccccc1Sc1ccc(O)c(O)c1 | 31.6 µM [rising, single point] | 35.5 µM [rising, single point] |
| OC(CN1CCN(Cc2ccccc2)CC1)Cn1c2ccccc2c2ccccc21 (stereo unspecified) |  | 2 µM [rising, partial curve, poor fit] |
| COCCNC(=O)/C(C#N)=C/c1c(F)cccc1Cl |  | 7.08 µM [rising, full curve, poor fit] |
| c1ccc(CCn2nnnc2C(c2cccs2)N2CCN(Cc3ccc4c(c3)OCO4)CC2)cc1 (stereo unspecified) |  | 28.2 µM [rising, single point] |
| O=C(NCc1cccnc1)c1ccc(Cl)c(S(=O)(=O)N2CCCCCC2)c1 |  | 22.4 µM [rising, single point] |
| c1ccc2c3c([nH]c2c1)C1(CCCCC1)NCC3 | 0.112 µM [falling, single point] | 0.141 µM [falling, single point] |
| CC(C)OC(=O)/C(C#N)=C/c1cn(Cc2ccccc2)c2ccccc12 |  | 35.5 µM [rising, single point] |
| CC1(C)COC(c2ccc(F)c([N+](=O)[O-])c2)=N1 | 35.5 µM [falling, single point] | 35.5 µM [falling, single point] |
| CN(C)CCOC(c1ccc(Cl)cc1)c1ccccn1 (stereo unspecified) | 20 µM [falling, single point] | 35.5 µM [falling, single point] |
| Nn1c(Cc2ccccc2F)nnc1SCCOc1ccc(Cl)cc1 | 11.2 µM [rising, partial curve] | 35.5 µM [rising, single point] |
| CCn1c(=O)c2c(nc3n2CCN3c2ccccc2)n(C)c1=O | 0.891 µM [rising, partial curve] |  |
| C=C1CCC2[C@](C)(CO)C(O)CC[C@]2(C)C1C/C=C1/C(=O)OCC1O (stereo partly specified) | 4.47 µM [rising, single point] | 1.41 µM [rising, full curve] |
| Cc1noc(C)c1C(=O)Nc1nc(-c2ccccc2Cl)cs1 |  | 12.6 µM [rising, partial curve, poor fit] |
| Cc1[nH]n(-c2ccccc2)c(=O)c1C(C[N+](=O)[O-])c1ccc(Br)cc1 (stereo unspecified) |  | 10 µM [rising, single point] |
| CC(=O)Nn1cc2c(c1-c1ccccc1)c(=O)n(C)c(=O)n2C |  | 10 µM [rising, partial curve, poor fit] |
| O=C(c1cccc(COc2ccc(Cl)cc2Cl)c1)N1CCN(c2ccccn2)CC1 |  | 31.6 µM [rising, single point] |
| Clc1ccc(CC[C@H](Cn2ccnc2)Sc2c(Cl)cccc2Cl)cc1 |  | 0.224 µM [rising, full curve] |
| O=C1c2ccccc2CC1(Cc1ccccc1)Cc1ccccc1 |  | 22.4 µM [rising, single point] |
| COC(=O)c1nnn(CC(=O)NC(=O)Nc2ccccc2)c1C(=O)OC |  | 1.41 µM [falling, partial curve, poor fit] |

| SMILES | AC50 [1] | AC50 [2] |
| --- | --- | --- |
| O=C(Nc1ccc(F)cc1)C1CCN(c2nc3ccccc3n3cccc23)CC1 | 7.08 µM [falling, partial curve, poor fit] | 0.224 µM [falling, full curve, poor fit] |
| CCCCN(C)C(=O)C1CCN(Cc2ccc(OCc3ccccc3)cc2)CC1 |  | 35.5 µM [rising, single point] |
| COc1cc(/C=N/NC(=S)NC2CC3CC2C2C=CCC32)ccc1O (stereo unspecified) |  | 22.4 µM [falling, single point] |
| O=c1[nH]c(=O)n(Cc2ccccc2)c2nc(-c3ccc(Oc4ccc(F)cc4)c([N+](=O)[O-])c3)n(CCO)c12 | 35.5 µM [falling, single point] | 35.5 µM [falling, single point] |
| Cc1ccc(CNC(=O)CN(c2cccc([N+](=O)[O-])c2)S(=O)(=O)c2ccccc2)cc1 |  | 14.1 µM [rising, single point] |
| NS(=O)(=O)c1ccc(N/N=C/c2ccccn2)c([N+](=O)[O-])c1 | 25.1 µM [falling, partial curve] | 10 µM [falling, partial curve, poor fit] |
| O=C1NC(=S)S/C1=C/c1ccc(N2CCOCC2)o1 |  | 7.94 µM [rising, partial curve] |
| CCOCCCNS(=O)(=O)c1ccc2c(c1)CCN2C(C)=O |  | 14.1 µM [rising, single point] |
| CCn1c(=O)c2c(cnn2C)c2ccccc21 | 0.794 µM [rising, full curve, poor fit] | 3.98 µM [rising, full curve] |
| COc1ccccc1NC(=O)N1CCC(c2nc3ccccc3o2)CC1 |  | 0.0282 µM [falling, full curve, poor fit] |
| Cc1ccc(S(=O)(=O)CCC(=O)OCC(=O)NCc2ccc(Cl)cc2)cc1 |  | 3.98 µM [rising, partial curve, poor fit] |
| CC(C)NS(=O)(=O)c1ccc2c3c(cccc13)CC2 | 20 µM [falling, single point] | 35.5 µM [falling, single point] |
| CCOC(=O)C1(CCCc2ccccc2)CCN(C2CCSCC2)CC1 | 35.5 µM [falling, single point] |  |
| COc1ccccc1N1CCN(C(=O)CSc2nc3ccccc3nc2Cc2ccc(F)cc2)CC1 | 1 µM [rising, full curve, poor fit] | 3.16 µM [rising, full curve] |
| Cc1c(Nc2nc(-c3ccc(Cl)cc3)cs2)c(=O)n(-c2ccccc2)n1C |  | 31.6 µM [rising, partial curve] |
| Cc1ccc(/C=[N+](\[O-])c2ccc(N(C)C)cc2)c2nsnc12 |  | 22.4 µM [rising, single point] |
| Fc1ccc(Oc2nc(-c3ccccn3)nc3ccccc23)cc1 | 35.5 µM [rising, single point] | 11.2 µM [rising, partial curve] |
| NCCCC(N)(C(=O)O)C(F)F (stereo unspecified) | 8.91 µM [rising, partial curve] and 1.78 µM [rising, full curve, poor fit] | 7.08 µM [rising, partial curve, poor fit] and 12.6 µM [rising, single point] |
| Cc1ccccc1NCc1cccn1-c1nnc(N2CCOCC2)s1 | 10 µM [falling, partial curve, poor fit] |  |
| CC(Oc1cc(F)ccc1[N+](=O)[O-])C(=O)Nc1ccc(S(=O)(=O)N2CCCC2)cc1 (stereo unspecified) | 3.16 µM [falling, partial curve, poor fit] |  |
| CN(C)CCCn1c(SCC(=O)N2c3ccccc3Sc3ccccc32)nc2ccccc2c1=O | 35.5 µM [falling, single point] | 20 µM [falling, single point] |
| C/C(=N\Nc1ccc(Cl)cc1)c1c(O)cc(C)oc1=O | 7.08 µM [rising, partial curve, poor fit] | 10 µM [rising, single point] |
| O=C(Nc1ccc([N+](=O)[O-])cc1)Nc1ccc([N+](=O)[O-])cc1 | 22.4 µM [falling, single point] |  |
| Cc1ccc(C(=O)Nc2ccc3c(c2)N(C)C(=O)c2ccccc2S3)cc1 |  | 10 µM [rising, partial curve, poor fit] |
| CCCS(=O)(=O)N1CC(=O)N(c2ccccc2F)C(C)(C(=O)NC2CCCCCC2)C1 (stereo unspecified) | 0.0178 µM [falling, full curve, poor fit] | 0.02 µM [falling, full curve, poor fit] |
| COc1ccccc1CN1CCNC(=O)C1CC(=O)NC1Cc2ccccc2C1 (stereo unspecified) | 31.6 µM [falling, partial curve] | 0.0447 µM [falling, full curve, poor fit] |
| COc1ccc(C(=O)C2CCN(S(=O)(=O)c3ccc4c(c3)OCCO4)CC2)cc1 |  | 22.4 µM [rising, single point] |

Filtered by structure, those above with a cyano group

| SMILES | AC50 [1] | AC50 [2] |
| --- | --- | --- |
| COCCNC(=O)/C(C#N)=C/c1c(F)cccc1Cl |  | 7.08 µM [rising, full curve, poor fit] |
| CC(C)OC(=O)/C(C#N)=C/c1cn(Cc2ccccc2)c2ccccc12 |  | 35.5 µM [rising, single point] |

Record cards, from the list above:
CN(C)CCCn1c(SCC(=O)N2c3ccccc3Sc3ccccc32)nc2ccccc2c1=O as listed: AC50 [1]: 35.5 µM [falling, single point]; AC50 [2]: 20 µM [falling, single point]
Fc1ccc(Oc2nc(-c3ccccn3)nc3ccccc23)cc1 as listed: AC50 [1]: 35.5 µM [rising, single point]; AC50 [2]: 11.2 µM [rising, partial curve]
